Our source for the binding values is article PMC12362813.

Protein sequences, listed by entry. Tags and fused reporters are not part of them. Lines headed by an entry give the natural chain unless they say otherwise; changes in a name come on top. Residues count along the entry.
UniProt Q86WV6: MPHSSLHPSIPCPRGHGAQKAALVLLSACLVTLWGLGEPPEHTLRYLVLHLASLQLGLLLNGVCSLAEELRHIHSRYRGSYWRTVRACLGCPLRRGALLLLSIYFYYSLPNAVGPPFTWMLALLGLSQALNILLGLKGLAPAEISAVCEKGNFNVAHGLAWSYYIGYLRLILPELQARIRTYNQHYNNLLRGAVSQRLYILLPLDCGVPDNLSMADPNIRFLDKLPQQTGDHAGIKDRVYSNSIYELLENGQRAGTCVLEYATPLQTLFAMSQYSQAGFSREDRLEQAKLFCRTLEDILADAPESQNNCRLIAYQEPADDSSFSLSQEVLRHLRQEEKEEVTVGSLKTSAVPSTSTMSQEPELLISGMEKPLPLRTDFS
Flag-STING (amino acids 1–139): residues 1-139 of Q86WV6
UniProt Q9UNE7: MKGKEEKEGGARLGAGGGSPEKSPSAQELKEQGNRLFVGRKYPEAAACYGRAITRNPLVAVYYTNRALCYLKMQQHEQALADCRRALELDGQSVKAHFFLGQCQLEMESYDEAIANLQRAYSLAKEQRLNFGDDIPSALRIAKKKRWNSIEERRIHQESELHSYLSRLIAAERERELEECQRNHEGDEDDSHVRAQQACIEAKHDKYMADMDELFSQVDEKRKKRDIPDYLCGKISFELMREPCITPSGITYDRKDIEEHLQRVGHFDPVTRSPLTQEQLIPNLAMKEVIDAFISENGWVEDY

Results are given in words; binding and its absence hold for the method and conditions named. Binding seen in cells or lysates may run through a third protein. Some binding calls cover weakened binding; strength is not graded here. For part of these data: Sequences can lack the tags named with a protein.

In assay [1] the target is STING (endogenous) (human (endogenous in HeLa and SiHa)) (UniProt Q86WV6). Kind of assay: co-IP; endogenous proteins in HeLa and SiHa cells; IP with antibodies against STING, BAG2 or STUB1, IgG control; MG132 (10 µM) for 6 h; Western blot; also after siBAG2 knock-down (more STUB1 with STING).
The target is the same in assay [2]. The experiment in a line: proximity ligation; Duolink PLA in fixed HeLa cells with primary antibodies to the two proteins, anti-mouse PLUS and anti-rabbit MINUS probes; confocal microscopy.
The target of assay [3] is T1, GFP-BAG2 (amino acids 101–211) (UniProt O95816).
T1 sequence: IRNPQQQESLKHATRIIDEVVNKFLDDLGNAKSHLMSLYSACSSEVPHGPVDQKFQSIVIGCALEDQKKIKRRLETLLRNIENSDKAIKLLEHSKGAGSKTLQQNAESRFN
Kind of assay: co-IP; HEK293T cells co-transfected with tagged plasmids; MG132 (10 µM) for 6 h before lysis; tag antibody (Flag, GFP or HA) overnight at 4 °C, protein A/G beads 2 h at 4 °C, three washes; Western blot; also with siBAG2 (Figure 3M). In general terms: In western blotting, separated proteins are transferred to a membrane and probed.

Another assay concerns the target GFP-BAG2 (UniProt O95816). The assay is described as above.
For assay [4], the target named is Flag-STING (UniProt Q86WV6). The description is as above.
Assay [5] deals with Flag-STING (amino acids 1–139) (UniProt Q86WV6). Described as above.
The target in assay [6] is Flag-STING (UniProt Q86WV6). Kind of assay: co-IP; HEK293T cells transfected with Flag-STING, HA-STUB1 and rising GFP-BAG2 (0.2, 1.0 or 4.0 µg); MG132 (10 µM) for 6 h; IP with Flag and HA antibodies; Western blot.
The target in assay [7] is Flag-STING (UniProt Q86WV6). Kind of assay: co-IP; SiHa cells (Figure 3L; also Figure S2G) transfected with Flag-STING, HA-STUB1 and rising GFP-BAG2 (0.2, 1.0 or 4.0 µg); MG132 (10 µM) for 6 h; IP with Flag and HA antibodies; Western blot.
In assay [8] the target is BAG2 (endogenous) (human (endogenous in HeLa and SiHa)) (UniProt O95816). Kind of assay: co-IP; endogenous proteins in HeLa and SiHa cells; IP with antibodies against STING, BAG2 or STUB1, IgG control; MG132 (10 µM) for 6 h; Western blot; also after siBAG2 knock-down (more STUB1 with STING).

“BAG2 (endogenous) (from UniProt O95816 1-211)”: the binding entry in assay [1] and in [2] was “binds” each time. Regarding Flag-STING (from UniProt Q86WV6 1-379), the binding result (in assay [3]; in the assay with GFP-BAG2) was “binds” throughout. Regarding “Flag-STING L30A (from UniProt Q86WV6 1-379)”, the binding result with GFP-BAG2 is recorded as “binds”. As to “Flag-STING L30A/W34A (from UniProt Q86WV6 1-379)”, in the assay with GFP-BAG2, the binding result is recorded as “binds weakly”. On the same count and under the same terms, the entry for “Flag-STING W34A (from UniProt Q86WV6 1-379)” is “binds”.

On to GFP-BAG2 (from UniProt O95816 1-211), for which the binding entry (with Flag-STING [4]; in assay [5]) was “binds” throughout.

In the case of “GFP-BAG2 E192A (from UniProt O95816 1-211)”, the binding result with Flag-STING [4] was “binds”. For “GFP-BAG2 I188A (from UniProt O95816 1-211)”, the binding result with Flag-STING [4] was “binds”. Still for that read-out and setting: the entry for “GFP-BAG2 I188A/E192A (from UniProt O95816 1-211)” is “binds weakly”.

With “HA-STUB1 (from UniProt Q9UNE7 1-303) (enzyme)”, the binding result in the assay with Flag-STING [6], with Flag-STING [4] and with Flag-STING [7] was “binds” in each case. With “STING (endogenous) (from UniProt Q86WV6 1-379)”, the binding result in [8] was “binds”.

Consider “STUB1 (endogenous) (from UniProt Q9UNE7 1-303) (enzyme)”, for which the binding result in assay [1] and in [2] was “binds” each time.
